By UniProt entry, the sequences of proteins in these tests, tags left out.
UniProt P35372, whole entry: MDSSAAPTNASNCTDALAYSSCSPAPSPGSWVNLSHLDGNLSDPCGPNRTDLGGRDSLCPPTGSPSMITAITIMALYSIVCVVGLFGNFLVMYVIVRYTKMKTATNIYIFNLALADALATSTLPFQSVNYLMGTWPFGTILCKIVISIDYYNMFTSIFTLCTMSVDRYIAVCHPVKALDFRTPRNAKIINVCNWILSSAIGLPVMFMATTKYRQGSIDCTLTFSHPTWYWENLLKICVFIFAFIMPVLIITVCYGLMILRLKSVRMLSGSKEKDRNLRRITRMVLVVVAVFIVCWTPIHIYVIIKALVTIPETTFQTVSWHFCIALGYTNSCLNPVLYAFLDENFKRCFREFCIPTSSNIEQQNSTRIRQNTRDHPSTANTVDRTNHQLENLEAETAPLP

According to patent publication US20080125475A1 (priority 2006, published 2008):

Biological target: T1, human μ-opiate receptor (Homo sapiens, UniProt P35372)
T1 construct: purchased NEN, Zaventem, Belgium RB-HOM; host or cells: CHO-K1 cells (membrane preparation)
Test: biochemical
Format: binding

For CCC1(c2cccc(O)c2)CCCCN(C)C1 (stereo not shown) [meptazinol], the Ki was 150 nM.
